The list does not hold the whole screen: it is rich in T/C values a quarter to a half above the control, in often repeated tests (any T/C) and in doses without a T/C. Further doses and runs are listed elsewhere. T/C gives the treated animals as a percentage of the vehicle group. Some doses have a count of surviving animals in place of a T/C: the source files T/C as zero there, which appears to mark a toxic dose or a test without result, not a measured value. Some survivor counts are full or nearly so, which does not show that the dose was tolerated: survival well below the control is almost never listed, so the zero probably covers shortened survival too. Counts of survivors are from the toxicity check (mostly the fifth day) where no day follows; animals may have died later. Schedule codes are those of the source, taken here to give the interval after Q, in days (D) or hours (H), and the number of doses after X. For survival time, the PubChem record calls one and a half times the control and up active, and a quarter to a half above the control has no call in these data; cut-offs in other NCI protocols can differ. Marks such as (2×) stand for listed records that agree. Some T/C values carry the count of animals alive at the toxicity check (mostly the fifth day); where none is given, no animal had died by that day. Some entries hold several experiments; the results are listed from low to high.
Tested on: P388 leukemia ip, CD2F1 mice, survival T/C
Assay: NCI In Vivo Anticancer Drug Screen. Data for tumor model P388 Leukemia (intraperitoneal) in CD2F1 (CDF1) mice
Settings: T/C endpoint: median survival time, higher T/C = longer survival
[1] = dose: 100.0 mg/kg/injection, schedule: Q01DX009 (ip), vehicle: Klucel (hydroxypropylcellulose) (HPC)
[2] = dose: 200.0 mg/kg/injection, schedule: Q01DX009 (ip), vehicle: Klucel (hydroxypropylcellulose) (HPC)
[3] = dose: 50.0 mg/kg/injection, schedule: Q01DX005 (ip), vehicle: saline with Tween-80
[4] = dose: 200.0 mg/kg/injection, schedule: Q01DX005 (ip), vehicle: saline with Tween-80
[5] = dose: 50.0 mg/kg/injection, schedule: Q01DX009 (ip), vehicle: saline
[6] = dose: 200.0 mg/kg/injection, schedule: Q01DX005 (ip), vehicle: Klucel (hydroxypropylcellulose) (HPC)
[7] = dose: 100.0 mg/kg/injection, schedule: Q04DX003 (ip), vehicle: saline with Tween-80
[8] = dose: 100.0 mg/kg/injection, schedule: Q01DX009 (ip), vehicle: saline
[9] = dose: 100.0 mg/kg/injection, schedule: Q01DX005 (ip), vehicle: Klucel (hydroxypropylcellulose) (HPC)
[10] = dose: 200.0 mg/kg/injection, schedule: Q01DX009 (ip), vehicle: saline with Tween-80
[11] = dose: 240.0 mg/kg/injection, schedule: Q01DX005 (ip), vehicle: saline with Tween-80

SMILES: CN1CCCSC1=S
- survivor count (dose: 50.0 mg/kg/injection, schedule: Q01DX009 (ip), vehicle: Klucel (hydroxypropylcellulose) (HPC)): 3 of 6
- survivor count [1]: 0 of 6
- survivor count [2]: 0 of 6

SMILES: CC(=O)c1cc(C(=O)O)c(O)c2ccccc12
- survivor count [2]: 2 of 6

SMILES: CCCCCCCN(CCCCCCC)CCCC(O)c1cccc2ccccc12 (configuration not stated)
- survivor count [3]: 1 of 5
- survivor count [4]: 0 of 5

SMILES: COc1cccc2c1C(=O)c1c(O)c3c(c(O)c1C2=O)C[C@@](O)(/C(C)=N\NC(N)=O)C[C@@H]3OC1CC(N)C(O)C(C)O1 (some centres not stated)
- T/C (dose: 3.12 mg/kg/injection, schedule: Q01DX009 (ip), vehicle: saline): 149 % of control
- survivor count (dose: 25.0 mg/kg/injection, schedule: Q01DX009 (ip), vehicle: saline): 6 of 6
- survivor count [5]: 2 of 6

SMILES: S=C(Nc1ccccc1)Nc1nccs1
- survivor count (dose: 400.0 mg/kg/injection, schedule: Q01DX009 (ip), vehicle: saline with Tween-80): 4 of 6

SMILES: CC(C)NC(=O)OCc1ncn(-c2ccccc2)c1COC(=O)NC(C)C
- survivor count [6]: 6 of 6
- survivor count (dose: 400.0 mg/kg/injection, schedule: Q01DX005 (ip), vehicle: Klucel (hydroxypropylcellulose) (HPC)): 6 of 6

SMILES: COc1ccc(/C=C/C(=O)c2ccc3c(c2)OCO3)cc1OC
- T/C [7]: 145 % of control

SMILES: CC(=O)c1ccc[n+](Cc2c(Cl)cccc2Cl)c1
- survivor count [5]: 3 of 6
- survivor count [8]: 3 of 6

SMILES: CCN=P1(N(C(C)C)C(C)C)N(CC)N=NN1C(C)(C)C (configuration not stated)
- survivor count (dose: 25.0 mg/kg/injection, schedule: Q01DX005 (ip), vehicle: Klucel (hydroxypropylcellulose) (HPC)): 0 of 6
- survivor count (dose: 50.0 mg/kg/injection, schedule: Q01DX005 (ip), vehicle: Klucel (hydroxypropylcellulose) (HPC)): 4 of 6
- survivor count [9]: 0 of 6
- survivor count [6]: 0 of 6

SMILES: NC(CSC(c1ccccc1)(c1ccccc1)c1ccc(CBr)cc1)C(=O)O (configuration not stated)
- T/C (dose: 12.5 mg/kg/injection, schedule: Q01DX009 (ip), vehicle: other): 128 % of control
- T/C (dose: 25.0 mg/kg/injection, schedule: Q01DX009 (ip), vehicle: other): 132 and 132 % of control [5 of 6 alive]
- T/C (dose: 50.0 mg/kg/injection, schedule: Q01DX009 (ip), vehicle: other): 137 % of control (2×)

SMILES: C/C=C1\CN2CCC34c5ccccc5N5C(C6C7CC8N(CCC89c8ccccc8N(C(C)=O)C69)C/C7=C\C)OCC(C1CC23)C54 (configuration not stated)
- survivor count (dose: 96.5 mg/kg/injection, schedule: Q01DX009 (ip), vehicle: saline with Tween-80): 1 of 6

SMILES: CN(Cc1ccccc1)N=NCc1ccccc1
- T/C [3]: 125 % of control
- survivor count [4]: 0 of 6

SMILES: O=C1CS/C(=N\C(=O)Nc2cccc(C(F)(F)F)c2)N1
- survivor count [5]: 6 of 6
- survivor count (dose: 100.0 mg/kg/injection, schedule: Q01DX009 (ip), vehicle: saline with Tween-80): 5 of 6
- survivor count [10]: 4 of 6

SMILES: C=C(C)C1CCC=CC(=O)C1 (configuration not stated)
- survivor count (dose: 400.0 mg/kg/injection, schedule: Q04DX003 (ip), vehicle: Klucel (hydroxypropylcellulose) (HPC)): 0 of 6

SMILES: CN(C)c1ccc(/C=C/c2ccc3ccccc3[n+]2C)cc1
- survivor count (dose: 6.25 mg/kg/injection, schedule: Q01DX009 (ip), vehicle: saline with Tween-80): 0 of 6
- survivor count (dose: 12.5 mg/kg/injection, schedule: Q01DX009 (ip), vehicle: saline with Tween-80): 0 of 6
- survivor count (dose: 25.0 mg/kg/injection, schedule: Q01DX009 (ip), vehicle: saline with Tween-80): 0 of 6
- survivor count (dose: 50.0 mg/kg/injection, schedule: Q04DX003 (ip), vehicle: saline with Tween-80): 0 of 6
- survivor count [7]: 0 of 6
- survivor count (dose: 200.0 mg/kg/injection, schedule: Q04DX003 (ip), vehicle: saline with Tween-80): 0 of 6

SMILES: N#CC(C(=O)C(=O)Nc1ccc(Cl)c(Cl)c1)c1ccccc1 (configuration not stated)
- survivor count [11]: 0 of 6

SMILES: c1ccc(Cn2nnnc2Nc2ccccc2)cc1
- survivor count [9]: 3 of 5

SMILES: CP1(=S)C/C(=N\NC(N)=S)C2CCCCC21 (configuration not stated)
- survivor count (dose: 50.0 mg/kg/injection, schedule: Q01DX001 (ip), vehicle: Klucel (hydroxypropylcellulose) (HPC)): 0 of 3
- survivor count (dose: 100.0 mg/kg/injection, schedule: Q01DX001 (ip), vehicle: Klucel (hydroxypropylcellulose) (HPC)): 0 of 3
- survivor count (dose: 200.0 mg/kg/injection, schedule: Q01DX001 (ip), vehicle: Klucel (hydroxypropylcellulose) (HPC)): 0 of 3

SMILES: CN1C(=O)NC(c2ccc(Cl)cc2)(c2ccc(Cl)cc2)C1=O
- T/C (dose: 100.0 mg/kg/injection, schedule: Q04DX003 (ip), vehicle: other): 133 % of control
- T/C (dose: 200.0 mg/kg/injection, schedule: Q04DX003 (ip), vehicle: other): 129 % of control
- survivor count (dose: 400.0 mg/kg/injection, schedule: Q04DX003 (ip), vehicle: other): 3 of 6

SMILES: CCSC(=S)S(=O)(=O)c1ccc(C)cc1
- survivor count [1]: 1 of 6
- survivor count [2]: 0 of 6

SMILES: [O-]c1c(Cl)c(Cl)c(O[P+](c2ccccc2)(c2ccccc2)c2ccccc2)c(Cl)c1Cl
- survivor count [5]: 5 of 6
- survivor count [8]: 2 of 6

SMILES: O=C(O)/C=N/NS(=O)(=O)/C=C/c1ccccc1
- T/C (dose: 12.5 mg/kg/injection, schedule: Q01DX009 (ip), vehicle: distilled water + Tween-80): 129 % of control
- survivor count (dose: 200.0 mg/kg/injection, schedule: Q01DX009 (ip), vehicle: distilled water + Tween-80): 3 of 6

SMILES: CN(C)[C@@H]1C(=O)C(C(N)=O)=C(O)[C@@]2(O)C(=O)C3=C(O)c4c(O)ccc(Cl)c4[C@@](C)(O)[C@H]3C[C@@H]12
- survivor count (dose: 400.0 mg/kg/injection, schedule: Q04DX003 (ip), vehicle: saline): 0 of 6

SMILES: O=C(CC(=O)C(F)(F)F)c1ccc(-c2ccccc2)cc1
- survivor count [10]: 0 of 6

SMILES: CN(C)c1ccc(/C=C/C=N/NC(=S)NC23CC4CC(CC(C4)C2)C3)cc1
- survivor count [11]: 6 of 6

SMILES: CCN1CCC(O)(/C=C/c2ccccc2)C(C(=O)/C=C/c2ccccc2)C1 (configuration not stated)
- survivor count (dose: 240.0 mg/kg/injection, schedule: Q01DX005 (ip), vehicle: Klucel (hydroxypropylcellulose) (HPC)): 3 of 6

SMILES: NC(=O)c1cccn1Cc1ccccc1SSc1ccccc1Cn1cccc1C(N)=O
- survivor count [11]: 6 of 6

SMILES: CN(C)CC(CN(C)C)C(=O)c1ccc(Cl)cc1
- survivor count (dose: 50.0 mg/kg/injection, schedule: Q01DX005 (ip), vehicle: saline): 3 of 6
- survivor count (dose: 100.0 mg/kg/injection, schedule: Q01DX005 (ip), vehicle: saline): 2 of 6
- survivor count (dose: 200.0 mg/kg/injection, schedule: Q01DX005 (ip), vehicle: saline): 0 of 6

SMILES: Nc1ncnc2c1nc([Se])n2C1OC(CO)C(O)C1O (configuration not stated)
- survivor count (dose: 50.0 mg/kg/injection, schedule: Q01DX005 (ip), vehicle: other): 3 of 3

SMILES: COc1cc2ccc3c(c2cc1OC)N(C)C(OC)c1cc2c(cc1-3)OCO2 (configuration not stated)
- T/C (dose: 20.0 mg/kg/injection, schedule: Q01DX009 (ip), vehicle: Klucel (hydroxypropylcellulose) (HPC)): 142 % of control
- survivor count (dose: 160.0 mg/kg/injection, schedule: Q01DX009 (ip), vehicle: Klucel (hydroxypropylcellulose) (HPC)): 6 of 6

SMILES: CCCCCCOC(=O)C1=C(NC)CCC1
- survivor count (dose: 200.0 mg/kg/injection, schedule: Q01DX009 (ip), vehicle: saline): 4 of 6

SMILES: O=CC(CO)C(C=O)n1ncc2ccccc21 (configuration not stated)
- T/C (dose: 8.0 mg/kg/injection, schedule: Q01DX009 (ip), vehicle: saline with Tween-80): 125 % of control
- T/C (dose: 32.0 mg/kg/injection, schedule: Q01DX009 (ip), vehicle: saline with Tween-80): 127 % of control
- T/C (dose: 64.0 mg/kg/injection, schedule: Q01DX001 (ip), vehicle: saline): 126 % of control
- survivor count (dose: 64.0 mg/kg/injection, schedule: Q01DX009 (ip), vehicle: saline with Tween-80): 0 of 6
- survivor count (dose: 128.0 mg/kg/injection, schedule: Q01DX001 (ip), vehicle: suspension in saline): 2 of 6
- survivor count (dose: 128.0 mg/kg/injection, schedule: Q01DX009 (ip), vehicle: saline with Tween-80): 0 of 6

Source: PubChem BioAssay AID330 (DTP/NCI, 2004)
